Series [1] addresses c-Met Fc fusion (UniProt P08581). Put plainly: filter binding. Conditions: dot blot, purified recombinant protein, protein details: Fc-His fusion, single-stranded DNA.
For series [2], the target named is CD16α (FcγRIIIa) V158 allotype, CD16α-6His (UniProt P08637). The experiment in a line: filter binding. Conditions: CLN0020 at 5' retained original affinity, dot blot, allotype not specified, purified recombinant protein, protein details: 6His, single-stranded DNA.
The target of series [3] is CD16α F158 on recombinant Jurkat cells (UniProt P08637). The experiment in a line: flow cytometry. The settings on record: no binding to CD16α-negative Jurkat E6.1; protein on the cell surface; single-stranded DNA.
The target in series [4] is CD16α (FcγRIIIa) F158 allotype, CD16α-6His (UniProt P08637). Put plainly: filter binding. Conditions: dot blot, V158 allotype binding only; purified recombinant protein; protein details: 6His; single-stranded DNA.
Series [5] concerns the target c-Met Fc fusion (UniProt P08581). The experiment in a line: SELEX. The settings on record: purified recombinant protein, protein details: Fc-His fusion, single-stranded DNA.
Series [6] deals with c-Met on GTL-16, MNK-45, EBC-1 cells (Homo sapiens) (UniProt P08581). Put plainly: flow cytometry. The settings on record: no binding on Jurkat cells; protein on the cell surface; single-stranded DNA.
Series [7] deals with Fc portion (fusion partner control). Put plainly: filter binding. The settings on record: no Fc or His-tag binding, dot blot; purified recombinant protein; single-stranded DNA.
The target in series [8] is CD16α (FcγRIIIa) V158 allotype, CD16α-6His (UniProt P08637). The experiment in a line: EMSA. The settings on record: purified recombinant protein, protein details: 6His, single-stranded DNA.
Setting [9] is: decreased c-Met affinity, no linker.
Where [10] appears, read: listed as binding specifically to c-Met, did not meet low nM criterion.

The chains behind the UniProt entries cited, without tags or fusion partners. Residues count along the entry.
UniProt P08581, 25-932: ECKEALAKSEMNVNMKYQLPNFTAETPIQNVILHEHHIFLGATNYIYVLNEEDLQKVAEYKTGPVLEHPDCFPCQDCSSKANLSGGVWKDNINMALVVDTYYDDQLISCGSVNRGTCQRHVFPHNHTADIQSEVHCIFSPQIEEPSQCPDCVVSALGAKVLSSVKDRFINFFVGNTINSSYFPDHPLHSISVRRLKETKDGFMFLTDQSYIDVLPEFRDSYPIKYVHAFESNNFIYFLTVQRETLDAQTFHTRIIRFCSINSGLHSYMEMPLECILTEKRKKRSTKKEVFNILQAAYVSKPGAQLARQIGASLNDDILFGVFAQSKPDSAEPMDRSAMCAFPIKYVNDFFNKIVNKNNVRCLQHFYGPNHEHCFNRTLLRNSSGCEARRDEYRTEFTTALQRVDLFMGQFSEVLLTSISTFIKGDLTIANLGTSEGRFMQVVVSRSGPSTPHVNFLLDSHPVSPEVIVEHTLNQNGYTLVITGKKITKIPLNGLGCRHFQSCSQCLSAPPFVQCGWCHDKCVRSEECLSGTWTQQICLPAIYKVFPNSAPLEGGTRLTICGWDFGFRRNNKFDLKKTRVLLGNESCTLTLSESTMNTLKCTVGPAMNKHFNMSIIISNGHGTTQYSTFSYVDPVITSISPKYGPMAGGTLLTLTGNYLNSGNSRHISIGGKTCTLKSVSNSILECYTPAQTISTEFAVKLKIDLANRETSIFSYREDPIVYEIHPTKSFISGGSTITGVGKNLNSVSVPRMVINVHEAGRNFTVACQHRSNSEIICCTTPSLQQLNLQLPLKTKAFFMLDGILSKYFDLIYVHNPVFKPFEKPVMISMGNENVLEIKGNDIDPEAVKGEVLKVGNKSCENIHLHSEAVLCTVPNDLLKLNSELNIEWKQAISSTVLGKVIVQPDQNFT
UniProt P08581, 25-1390: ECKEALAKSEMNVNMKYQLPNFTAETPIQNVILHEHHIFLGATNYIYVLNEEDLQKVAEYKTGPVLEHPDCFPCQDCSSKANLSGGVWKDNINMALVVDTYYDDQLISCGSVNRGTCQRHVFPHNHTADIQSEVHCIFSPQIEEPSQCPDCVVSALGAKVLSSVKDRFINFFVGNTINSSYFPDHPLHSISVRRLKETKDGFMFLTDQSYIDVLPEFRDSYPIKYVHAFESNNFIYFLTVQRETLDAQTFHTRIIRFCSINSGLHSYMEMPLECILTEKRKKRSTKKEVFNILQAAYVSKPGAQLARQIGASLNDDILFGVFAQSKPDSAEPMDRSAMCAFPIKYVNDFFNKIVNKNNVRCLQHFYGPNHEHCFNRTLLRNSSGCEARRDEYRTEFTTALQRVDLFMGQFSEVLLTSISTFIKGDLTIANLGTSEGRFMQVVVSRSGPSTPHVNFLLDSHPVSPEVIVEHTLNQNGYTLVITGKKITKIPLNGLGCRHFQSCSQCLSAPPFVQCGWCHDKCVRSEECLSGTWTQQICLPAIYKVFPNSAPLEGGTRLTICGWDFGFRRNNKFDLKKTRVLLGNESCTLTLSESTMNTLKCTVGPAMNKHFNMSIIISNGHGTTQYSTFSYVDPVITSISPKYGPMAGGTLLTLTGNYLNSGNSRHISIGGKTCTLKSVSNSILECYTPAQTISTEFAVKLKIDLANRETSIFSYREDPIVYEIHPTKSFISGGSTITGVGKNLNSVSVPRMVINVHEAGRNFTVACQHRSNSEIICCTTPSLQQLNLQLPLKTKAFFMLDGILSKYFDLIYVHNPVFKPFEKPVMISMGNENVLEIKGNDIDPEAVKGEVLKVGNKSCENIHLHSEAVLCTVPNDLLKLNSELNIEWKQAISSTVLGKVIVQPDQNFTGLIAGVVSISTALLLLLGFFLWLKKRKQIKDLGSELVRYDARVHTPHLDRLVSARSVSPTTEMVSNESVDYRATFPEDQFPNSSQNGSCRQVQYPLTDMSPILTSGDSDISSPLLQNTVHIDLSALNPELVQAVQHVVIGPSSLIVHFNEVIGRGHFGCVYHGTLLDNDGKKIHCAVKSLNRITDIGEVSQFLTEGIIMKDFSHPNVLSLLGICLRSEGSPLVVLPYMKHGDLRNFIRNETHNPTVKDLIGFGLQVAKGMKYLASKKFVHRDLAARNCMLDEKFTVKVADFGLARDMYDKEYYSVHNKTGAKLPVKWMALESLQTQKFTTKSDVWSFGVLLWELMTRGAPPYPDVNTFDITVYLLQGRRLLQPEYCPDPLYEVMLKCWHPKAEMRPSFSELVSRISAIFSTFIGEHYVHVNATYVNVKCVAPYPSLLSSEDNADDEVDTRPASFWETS
UniProt P08637, 17-208: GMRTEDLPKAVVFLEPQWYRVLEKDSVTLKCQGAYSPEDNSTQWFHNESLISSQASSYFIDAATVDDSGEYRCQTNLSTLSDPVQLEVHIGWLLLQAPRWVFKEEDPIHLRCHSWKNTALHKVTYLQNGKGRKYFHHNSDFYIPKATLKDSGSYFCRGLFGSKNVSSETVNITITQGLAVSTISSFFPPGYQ
UniProt P08637, 17-254: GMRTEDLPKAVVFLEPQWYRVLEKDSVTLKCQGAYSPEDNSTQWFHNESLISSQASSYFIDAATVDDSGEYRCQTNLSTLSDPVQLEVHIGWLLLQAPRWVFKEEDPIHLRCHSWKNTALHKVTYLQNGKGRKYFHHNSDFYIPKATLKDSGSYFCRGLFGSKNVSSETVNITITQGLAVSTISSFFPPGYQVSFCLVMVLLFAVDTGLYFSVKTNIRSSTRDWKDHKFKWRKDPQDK

For some assays here: Negatives hold for the conditions tested. For some assays here: The comparison behind a weaker result is the experiment's own reference, which may not be listed here. For some assays here: Where cells or extracts were used, other partners may take part. For some assays here: Construct, isoform or probe ends are uncertain for at least one entry.

Results on 16 sequences are retold here after patent publication US20140039042.

Regarding “CCACTGCGGGGGTCTATACGTGAGGAAGAAGTGGGCAGGTCGAGTGCGTAATGGTACGATTTGGGAAGTGGCTTGGGGTGGG [bsA1]”, in the series with c-Met Fc fusion [1] (setting [9]), the binding result is “binds more weakly”.

For “CCACTGCGGGGGTCTATACGTGAGGAAGAAGTGGGCAGGTCGAGTGCGTAATGGTACGATTTGGGAAGTGGCTTGGGGTGGG [bsA5]”, the binding result in the series with c-Met Fc fusion [1] (iSp9 PEG(3) spacer between the two parts, c-Met aptamer at 3' end performed best) is on record as “binds”; in series [2] (iSp9 PEG(3) spacer between the two parts) it was “binds”. For “CCACTGCGGGGGTCTATACGTGAGGAAGAAGTGGGCAGGTCGAGTGCGTAATGGTACGATTTGGGAAGTGGCTTGGGGTGGG [bsA7]”, the binding result is “binds” with c-Met Fc fusion [1] (iSp18 PEG(6) spacer between the two parts, c-Met aptamer at 3' end performed best) and “binds” in series [2] (iSp18 PEG(6) spacer between the two parts).

For the sequence “GAGTGCGTAATGGTACGATTTGGGAAGTGGCTTGGGGTGGGCCACTGCGGGGGTCTATACGTGAGGAAGAAGTGGGCAGGTC [bsA2]”, the binding result in the series with c-Met Fc fusion [1] (setting [9]) is given as “binds more weakly”. For “GGAGGGAAAAGTTATCAGGCAGAGGGGAGGGTCGGGTATCGGCGTGTTCGGGGGATCTGCGATTAGTTTTGGAGTACTCGCTCC [CLN0123]”, the binding result in series [3] was “binds”; in series [4] it was “no binding”. “GGAGGGAAAAGTTATCAGGCATCACGTGGTGGGCAAATAACCGGTTGGGGTGGGTCGAGGGATTAGTTTTGGAGTACTCGCTCC [CLN0018]”: the binding result in series [4] is “no binding”. Take “GGAGGGAAAAGTTATCAGGCCACTGCGGGGGTCTATACGTGAGGAAGAAGTGGGCAGGTCGATTAGTTTTGGAGTACTCGCTCC [CLN0020]”: in series [3], the binding result is given as “binds”. As for “GGAGGGAAAAGTTATCAGGCCGACAGTGGGTAGCGGTTAAGGGGAAGTGGCTTGGGGTGGGATTAGTTTTGGAGTACTCGCTCC [CLN0010]”, the selection result with c-Met Fc fusion [5] (setting [10]) was “selected”.

As to “GGAGGGAAAAGTTATCAGGCCGGGGGGGGAAGACGAGTGTAAGTTGGTAGGGTGGGGTAGGATTAGTTTTGGAGTACTCGCTCC [CLN0014]”, in the series with c-Met Fc fusion [5] (setting [10]), the selection result is recorded as “selected”. With “GGAGGGAAAAGTTATCAGGCCGGGGTGGGATAAAAGCATGGTTGGTAGGGGTTGGGGCATGATTAGTTTTGGAGTACTCGCTCC [CLN0011]”, the selection result with c-Met Fc fusion [5] (setting [10]) is listed as “selected”.

Consider “GGAGGGAAAAGTTATCAGGCCGGGGTGGGGAGTAACAGGCTGTTGGTAGGGGTGGACCTGGATTAGTTTTGGAGTACTCGCTCC [CLN0001]”, for which, in the series with c-Met Fc fusion [5] (setting [10]), the selection result is listed as “selected”. On to “GGAGGGAAAAGTTATCAGGCGAGCGGGGACGAACACATATGGGGAAGTGGCTTGGGGTGGGATTAGTTTTGGAGTACTCGCTCC [CLN0008]”, for which, in the series with c-Met Fc fusion [5] (excluded from characterisation due to similarity with CLN0004), the selection result is listed as “selected”. Take “GGAGGGAAAAGTTATCAGGCGAGTGCGTAATGGTACGATTTGGGAAGTGGCTTGGGGTGGGATTAGTTTTGGAGTACTCGCTCC [CLN0004]”: the binding result in series [6] was “binds”; in series [7] it was “no binding”; in series [8] (single c-Met aptamer control, same pattern as CLN0003, wording ambiguous), “no binding”. For the sequence “GGAGGGAAAAGTTATCAGGCGAGTGCGTAATGGTACGATTTGGGAAGTGGTTTGGGGTGGGATTAGTTTTGGAGTACTCGCTCC [CLN0009]”, in the series with c-Met Fc fusion [5] (setting [10]), the selection result was “selected”. Same read-out and setting: next, “GGAGGGAAAAGTTATCAGGCGGATACAGCAGAATAAGGGAAGGGGCAGATCGGGGTGGGGATTAGTTTTGGAGTACTCGCTCC [CLN0006]”: “selected”.

With “GGAGGGAAAAGTTATCAGGCTGGATGGTAGCTCGGTCGGGGTGGGTGGGTTGGCAAGTCTGATTAGTTTTGGAGTACTCGCTCC [CLN0003]”, the binding result in series [6] is listed as “binds”; in series [7] it was “no binding”; in series [8] (negative control, no supershift with CD16α-6His), “no binding”.
